Reference: article PMC12751231
These are yes or no findings as the source states them, for the method shown. Binding seen in cells or lysates may run through a third protein. Some entries that bind do so weakly or less than the wild type. Where a sequence is shown, tags or fusion partners need not be part of it.

The chains behind the UniProt entries cited, without tags or fusion partners.
UniProt Q61879: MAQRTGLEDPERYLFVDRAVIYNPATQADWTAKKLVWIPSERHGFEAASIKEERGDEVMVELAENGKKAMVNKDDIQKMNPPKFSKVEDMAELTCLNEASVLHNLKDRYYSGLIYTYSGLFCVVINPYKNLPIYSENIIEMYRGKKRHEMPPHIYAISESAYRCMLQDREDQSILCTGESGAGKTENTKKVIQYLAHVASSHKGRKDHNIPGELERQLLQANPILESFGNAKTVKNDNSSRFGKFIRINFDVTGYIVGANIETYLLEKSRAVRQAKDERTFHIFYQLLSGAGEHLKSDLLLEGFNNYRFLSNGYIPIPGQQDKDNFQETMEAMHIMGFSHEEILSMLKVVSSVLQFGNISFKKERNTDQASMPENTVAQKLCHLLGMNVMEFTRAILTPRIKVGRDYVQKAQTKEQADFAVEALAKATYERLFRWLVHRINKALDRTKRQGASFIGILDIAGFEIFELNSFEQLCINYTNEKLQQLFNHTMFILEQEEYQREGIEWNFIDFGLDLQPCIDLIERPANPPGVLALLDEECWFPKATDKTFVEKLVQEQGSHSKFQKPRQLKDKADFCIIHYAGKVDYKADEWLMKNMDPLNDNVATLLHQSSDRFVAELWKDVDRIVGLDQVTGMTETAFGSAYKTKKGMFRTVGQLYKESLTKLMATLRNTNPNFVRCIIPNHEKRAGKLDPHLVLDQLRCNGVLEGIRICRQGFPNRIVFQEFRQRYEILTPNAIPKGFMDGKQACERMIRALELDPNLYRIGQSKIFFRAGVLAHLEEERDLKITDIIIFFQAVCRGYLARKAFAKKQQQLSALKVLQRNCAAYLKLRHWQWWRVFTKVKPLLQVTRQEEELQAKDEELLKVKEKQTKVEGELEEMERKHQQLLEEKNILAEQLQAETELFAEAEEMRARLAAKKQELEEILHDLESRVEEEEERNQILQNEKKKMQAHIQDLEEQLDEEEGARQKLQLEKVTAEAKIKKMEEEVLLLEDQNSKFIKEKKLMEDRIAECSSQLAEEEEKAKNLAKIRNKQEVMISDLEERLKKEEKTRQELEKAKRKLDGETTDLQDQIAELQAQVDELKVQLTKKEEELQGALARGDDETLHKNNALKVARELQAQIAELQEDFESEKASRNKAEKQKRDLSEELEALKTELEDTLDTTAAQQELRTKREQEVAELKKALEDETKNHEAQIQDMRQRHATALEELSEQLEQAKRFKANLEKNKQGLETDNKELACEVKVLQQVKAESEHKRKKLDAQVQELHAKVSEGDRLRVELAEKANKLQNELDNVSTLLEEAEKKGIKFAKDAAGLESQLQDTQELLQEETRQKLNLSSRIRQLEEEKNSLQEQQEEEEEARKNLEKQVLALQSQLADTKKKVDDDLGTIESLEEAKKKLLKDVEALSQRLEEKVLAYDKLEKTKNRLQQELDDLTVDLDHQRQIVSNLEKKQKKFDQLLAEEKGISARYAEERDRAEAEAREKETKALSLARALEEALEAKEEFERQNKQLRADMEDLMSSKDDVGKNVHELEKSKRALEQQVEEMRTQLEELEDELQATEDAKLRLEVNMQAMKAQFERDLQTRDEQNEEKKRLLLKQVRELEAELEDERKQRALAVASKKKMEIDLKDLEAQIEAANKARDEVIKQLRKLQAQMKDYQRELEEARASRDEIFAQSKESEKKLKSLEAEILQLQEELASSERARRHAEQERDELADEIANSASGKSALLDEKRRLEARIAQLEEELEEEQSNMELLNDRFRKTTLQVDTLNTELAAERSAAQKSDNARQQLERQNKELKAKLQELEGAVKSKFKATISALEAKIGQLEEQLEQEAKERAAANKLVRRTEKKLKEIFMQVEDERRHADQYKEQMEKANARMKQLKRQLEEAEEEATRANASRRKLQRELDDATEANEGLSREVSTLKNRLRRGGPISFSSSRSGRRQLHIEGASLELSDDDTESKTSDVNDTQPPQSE

Tests used:
[1] = target: T1, CFAP57 (cilia and flagella associated protein 57), mouse (mouse (endogenous in testis)) (UniProt Q9D180); experiment: co-IP; WT mouse testis lysate; CFAP57, MYH10 or RAB1 antibody or rabbit IgG overnight at 4 °C, protein G agarose beads 4 h, five washes with lysis buffer; Western blotting with MYH10, RAB1 and CFAP57 antibodies
T1 sequence: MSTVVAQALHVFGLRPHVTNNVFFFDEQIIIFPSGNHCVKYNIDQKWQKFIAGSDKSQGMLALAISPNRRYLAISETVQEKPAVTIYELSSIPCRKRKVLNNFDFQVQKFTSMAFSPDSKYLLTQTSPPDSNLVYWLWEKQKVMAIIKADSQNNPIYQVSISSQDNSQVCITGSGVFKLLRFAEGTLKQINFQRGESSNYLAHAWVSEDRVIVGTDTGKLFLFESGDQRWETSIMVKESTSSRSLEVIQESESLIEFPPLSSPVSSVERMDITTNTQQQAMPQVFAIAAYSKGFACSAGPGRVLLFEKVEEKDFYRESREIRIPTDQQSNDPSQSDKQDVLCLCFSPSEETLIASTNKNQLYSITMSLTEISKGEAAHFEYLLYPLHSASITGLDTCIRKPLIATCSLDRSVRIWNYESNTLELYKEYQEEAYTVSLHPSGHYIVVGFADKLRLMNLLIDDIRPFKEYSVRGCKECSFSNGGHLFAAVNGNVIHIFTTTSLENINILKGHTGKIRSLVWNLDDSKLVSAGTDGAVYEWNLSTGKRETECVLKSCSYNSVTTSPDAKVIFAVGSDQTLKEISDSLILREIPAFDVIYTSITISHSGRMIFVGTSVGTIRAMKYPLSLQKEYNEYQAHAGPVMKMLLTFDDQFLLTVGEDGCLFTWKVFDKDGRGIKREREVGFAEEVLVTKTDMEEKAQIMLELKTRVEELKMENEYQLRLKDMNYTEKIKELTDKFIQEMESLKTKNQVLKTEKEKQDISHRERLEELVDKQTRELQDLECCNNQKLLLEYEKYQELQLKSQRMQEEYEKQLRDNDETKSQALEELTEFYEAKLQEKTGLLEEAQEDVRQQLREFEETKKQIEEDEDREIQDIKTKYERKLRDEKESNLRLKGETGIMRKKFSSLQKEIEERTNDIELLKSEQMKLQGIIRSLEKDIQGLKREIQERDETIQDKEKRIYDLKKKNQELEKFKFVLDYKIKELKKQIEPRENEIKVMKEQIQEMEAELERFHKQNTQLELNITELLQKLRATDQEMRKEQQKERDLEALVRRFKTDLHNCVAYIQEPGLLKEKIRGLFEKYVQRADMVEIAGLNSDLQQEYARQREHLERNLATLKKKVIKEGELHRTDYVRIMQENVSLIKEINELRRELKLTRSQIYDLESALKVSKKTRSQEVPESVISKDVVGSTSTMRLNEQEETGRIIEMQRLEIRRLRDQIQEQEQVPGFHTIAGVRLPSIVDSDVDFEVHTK

[2] = target: MYH10, a non-muscle myosin II isoform, mouse (mouse (endogenous in testis)) (UniProt Q61879); experiment: as above

Molecule: MYH10, a non-muscle myosin II isoform, mouse (from UniProt Q61879 1-1976)
- binding [1]: binds

B1: CFAP57 (cilia and flagella associated protein 57), mouse (protein, UniProt Q9D180 1-1249)
chain: MSTVVAQALHVFGLRPHVTNNVFFFDEQIIIFPSGNHCVKYNIDQKWQKFIAGSDKSQGMLALAISPNRRYLAISETVQEKPAVTIYELSSIPCRKRKVLNNFDFQVQKFTSMAFSPDSKYLLTQTSPPDSNLVYWLWEKQKVMAIIKADSQNNPIYQVSISSQDNSQVCITGSGVFKLLRFAEGTLKQINFQRGESSNYLAHAWVSEDRVIVGTDTGKLFLFESGDQRWETSIMVKESTSSRSLEVIQESESLIEFPPLSSPVSSVERMDITTNTQQQAMPQVFAIAAYSKGFACSAGPGRVLLFEKVEEKDFYRESREIRIPTDQQSNDPSQSDKQDVLCLCFSPSEETLIASTNKNQLYSITMSLTEISKGEAAHFEYLLYPLHSASITGLDTCIRKPLIATCSLDRSVRIWNYESNTLELYKEYQEEAYTVSLHPSGHYIVVGFADKLRLMNLLIDDIRPFKEYSVRGCKECSFSNGGHLFAAVNGNVIHIFTTTSLENINILKGHTGKIRSLVWNLDDSKLVSAGTDGAVYEWNLSTGKRETECVLKSCSYNSVTTSPDAKVIFAVGSDQTLKEISDSLILREIPAFDVIYTSITISHSGRMIFVGTSVGTIRAMKYPLSLQKEYNEYQAHAGPVMKMLLTFDDQFLLTVGEDGCLFTWKVFDKDGRGIKREREVGFAEEVLVTKTDMEEKAQIMLELKTRVEELKMENEYQLRLKDMNYTEKIKELTDKFIQEMESLKTKNQVLKTEKEKQDISHRERLEELVDKQTRELQDLECCNNQKLLLEYEKYQELQLKSQRMQEEYEKQLRDNDETKSQALEELTEFYEAKLQEKTGLLEEAQEDVRQQLREFEETKKQIEEDEDREIQDIKTKYERKLRDEKESNLRLKGETGIMRKKFSSLQKEIEERTNDIELLKSEQMKLQGIIRSLEKDIQGLKREIQERDETIQDKEKRIYDLKKKNQELEKFKFVLDYKIKELKKQIEPRENEIKVMKEQIQEMEAELERFHKQNTQLELNITELLQKLRATDQEMRKEQQKERDLEALVRRFKTDLHNCVAYIQEPGLLKEKIRGLFEKYVQRADMVEIAGLNSDLQQEYARQREHLERNLATLKKKVIKEGELHRTDYVRIMQENVSLIKEINELRRELKLTRSQIYDLESALKVSKKTRSQEVPESVISKDVVGSTSTMRLNEQEETGRIIEMQRLEIRRLRDQIQEQEQVPGFHTIAGVRLPSIVDSDVDFEVHTK
- binding [2]: binds
